Assay results published in publication PMC2848011.
No constants are given. Whether binding was seen depends on the method and setting. For some assays here: In cells and extracts the contact can be indirect. Some results given as binding are weak or reduced against the parent protein; the word gives no strength.

Chains of the proteins cited; added tags and fusions are not shown.
UniProt P08047: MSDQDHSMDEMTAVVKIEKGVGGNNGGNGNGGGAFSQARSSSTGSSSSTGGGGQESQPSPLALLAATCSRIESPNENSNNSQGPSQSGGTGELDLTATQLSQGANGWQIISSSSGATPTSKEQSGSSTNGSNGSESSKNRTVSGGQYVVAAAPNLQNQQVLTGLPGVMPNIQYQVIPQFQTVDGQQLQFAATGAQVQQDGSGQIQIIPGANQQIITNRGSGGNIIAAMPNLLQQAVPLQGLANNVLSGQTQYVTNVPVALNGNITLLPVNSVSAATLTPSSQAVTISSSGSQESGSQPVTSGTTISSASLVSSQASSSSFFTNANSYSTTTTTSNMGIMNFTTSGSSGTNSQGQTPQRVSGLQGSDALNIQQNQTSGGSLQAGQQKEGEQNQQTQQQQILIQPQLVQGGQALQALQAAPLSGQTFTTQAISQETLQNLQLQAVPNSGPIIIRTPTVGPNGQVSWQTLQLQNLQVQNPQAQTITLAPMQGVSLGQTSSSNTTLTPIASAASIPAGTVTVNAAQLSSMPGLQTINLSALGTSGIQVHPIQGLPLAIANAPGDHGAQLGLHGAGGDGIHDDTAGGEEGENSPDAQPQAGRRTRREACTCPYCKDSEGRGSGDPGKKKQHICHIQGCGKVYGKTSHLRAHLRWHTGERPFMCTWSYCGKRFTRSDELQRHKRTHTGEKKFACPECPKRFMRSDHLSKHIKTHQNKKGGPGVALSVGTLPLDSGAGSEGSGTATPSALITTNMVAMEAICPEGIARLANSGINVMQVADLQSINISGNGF
UniProt Q02447: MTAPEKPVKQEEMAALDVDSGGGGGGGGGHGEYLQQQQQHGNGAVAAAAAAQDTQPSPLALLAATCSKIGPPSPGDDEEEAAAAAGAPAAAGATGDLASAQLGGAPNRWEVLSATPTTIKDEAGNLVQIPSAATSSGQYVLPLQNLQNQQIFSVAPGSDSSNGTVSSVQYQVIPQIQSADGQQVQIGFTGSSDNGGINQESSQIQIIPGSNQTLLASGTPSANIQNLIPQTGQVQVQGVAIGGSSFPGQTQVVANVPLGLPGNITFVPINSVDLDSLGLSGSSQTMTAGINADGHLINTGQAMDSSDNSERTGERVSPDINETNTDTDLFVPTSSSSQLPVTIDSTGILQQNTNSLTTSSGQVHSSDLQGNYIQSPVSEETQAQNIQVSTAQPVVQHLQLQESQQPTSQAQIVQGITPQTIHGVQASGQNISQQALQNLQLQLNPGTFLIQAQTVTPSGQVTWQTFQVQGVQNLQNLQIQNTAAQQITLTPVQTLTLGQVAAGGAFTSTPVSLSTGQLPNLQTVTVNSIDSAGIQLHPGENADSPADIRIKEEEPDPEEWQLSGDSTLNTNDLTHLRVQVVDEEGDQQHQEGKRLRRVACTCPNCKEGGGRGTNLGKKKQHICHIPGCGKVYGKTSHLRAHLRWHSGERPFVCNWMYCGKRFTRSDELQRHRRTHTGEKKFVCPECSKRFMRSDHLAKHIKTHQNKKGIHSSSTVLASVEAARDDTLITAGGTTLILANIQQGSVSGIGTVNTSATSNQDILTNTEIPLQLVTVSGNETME
UniProt P49715: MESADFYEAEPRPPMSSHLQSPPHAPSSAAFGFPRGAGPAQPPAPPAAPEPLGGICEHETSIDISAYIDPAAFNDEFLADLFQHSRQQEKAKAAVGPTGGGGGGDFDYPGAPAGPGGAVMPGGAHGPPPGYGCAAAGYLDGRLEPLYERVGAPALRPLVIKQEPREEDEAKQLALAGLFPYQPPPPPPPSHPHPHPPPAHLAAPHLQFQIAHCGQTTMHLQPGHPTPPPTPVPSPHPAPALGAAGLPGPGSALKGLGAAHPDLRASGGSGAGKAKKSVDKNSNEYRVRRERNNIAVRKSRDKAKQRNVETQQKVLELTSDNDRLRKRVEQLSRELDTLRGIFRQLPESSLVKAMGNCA
UniProt P37231: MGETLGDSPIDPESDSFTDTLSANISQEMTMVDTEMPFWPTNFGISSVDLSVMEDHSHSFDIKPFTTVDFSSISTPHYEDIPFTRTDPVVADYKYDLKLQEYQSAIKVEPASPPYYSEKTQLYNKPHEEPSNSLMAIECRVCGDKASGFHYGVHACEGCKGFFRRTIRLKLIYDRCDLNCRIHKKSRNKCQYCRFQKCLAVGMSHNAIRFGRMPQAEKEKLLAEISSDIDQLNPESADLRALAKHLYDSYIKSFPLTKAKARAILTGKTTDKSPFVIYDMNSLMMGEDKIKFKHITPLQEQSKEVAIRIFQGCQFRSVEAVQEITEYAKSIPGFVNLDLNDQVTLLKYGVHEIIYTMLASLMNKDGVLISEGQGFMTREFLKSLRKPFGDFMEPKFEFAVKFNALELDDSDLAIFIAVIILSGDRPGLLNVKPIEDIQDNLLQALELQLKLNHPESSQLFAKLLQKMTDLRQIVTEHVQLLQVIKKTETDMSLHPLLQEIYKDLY
UniProt Q02446: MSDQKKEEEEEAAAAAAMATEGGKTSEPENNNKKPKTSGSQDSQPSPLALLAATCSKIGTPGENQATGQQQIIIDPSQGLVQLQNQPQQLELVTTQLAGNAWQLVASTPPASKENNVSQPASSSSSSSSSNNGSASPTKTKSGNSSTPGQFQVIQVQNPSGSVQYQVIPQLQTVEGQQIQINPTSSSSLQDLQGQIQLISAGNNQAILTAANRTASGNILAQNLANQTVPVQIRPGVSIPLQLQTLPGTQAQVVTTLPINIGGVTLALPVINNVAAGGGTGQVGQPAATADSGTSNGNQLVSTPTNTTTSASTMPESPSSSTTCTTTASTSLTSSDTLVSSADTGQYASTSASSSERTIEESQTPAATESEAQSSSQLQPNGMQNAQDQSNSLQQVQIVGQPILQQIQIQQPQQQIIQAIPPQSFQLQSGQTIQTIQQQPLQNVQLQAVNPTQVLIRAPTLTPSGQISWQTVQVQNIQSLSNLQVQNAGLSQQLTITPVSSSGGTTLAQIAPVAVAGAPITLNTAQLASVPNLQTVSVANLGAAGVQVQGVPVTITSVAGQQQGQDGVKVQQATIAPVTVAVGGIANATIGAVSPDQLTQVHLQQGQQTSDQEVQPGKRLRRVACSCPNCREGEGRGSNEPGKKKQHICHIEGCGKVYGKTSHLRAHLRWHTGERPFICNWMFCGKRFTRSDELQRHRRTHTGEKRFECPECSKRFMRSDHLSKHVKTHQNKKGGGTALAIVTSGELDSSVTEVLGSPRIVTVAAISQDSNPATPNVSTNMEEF

What was measured:
[1] = molecular target: Specificity Protein 1 (Sp1) (human (endogenous in U937)) (UniProt P08047); test: native gel or EMSA; super-shift EMSA: radio labeled hres Sp1 oligonucleotide (-276 to -295), 7.5 µg U937 nuclear extract (unstimulated; Sp1-Sp3 also with PMA stimulated extract), 2 µg of antibody to each factor; Sp1 binding buffer (10 mM Tris-Cl pH 7.5, 75 mM KCl, 0.1 mM EDTA, 2.5 mM MgCl2, 0.25 mM DTT, 10% glycerol), on ice
[2] = molecular target: Specificity Protein 1 (Sp1) (human (endogenous in U937)) (UniProt P08047); test: co-IP; whole cell extracts of PMA stimulated U937 cells in modified RIPA buffer; immune-precipitated with anti-Sp1 antibodies and blotted with PPARγ antibodies and vice versa; Protein G sepharose
[3] = molecular target: Specificity Protein 1 (Sp1) (human (endogenous in U937)) (UniProt P08047); test: co-IP; whole cell extracts of unstimulated U937 cells in modified RIPA buffer; immune-precipitated with anti-Sp1 antibodies and blotted with PPARγ antibodies and vice versa; Protein G sepharose, 4°C overnight
[4] = molecular target: Specificity Protein 1 (Sp1) (human (endogenous in U937)) (UniProt P08047); test: native gel or EMSA; super-shift EMSA: radio labeled hres Sp1 oligonucleotide, nuclear extracts from PMA stimulated U937 cells, anti-PPARγ antibody added
[5] = molecular target: Sp3 (human (endogenous in U937)) (UniProt Q02447); test: native gel or EMSA; super-shift EMSA: radio labeled hres Sp1 oligonucleotide (-276 to -295), 7.5 µg U937 nuclear extract (unstimulated; Sp1-Sp3 also with PMA stimulated extract), 2 µg of antibody to each factor; Sp1 binding buffer (10 mM Tris-Cl pH 7.5, 75 mM KCl, 0.1 mM EDTA, 2.5 mM MgCl2, 0.25 mM DTT, 10% glycerol), on ice

| Substance | binding [1] | binding [2] | binding [3] | binding [4] | binding [5] |
| --- | --- | --- | --- | --- | --- |
| CCAAT enhancer binding protein α (C/EBP-α) (from UniProt P49715 1-358) | no binding |  |  |  |  |
| peroxisome proliferator activating receptor gamma (PPARγ) (from UniProt P37231 1-505) | binds | no binding (condition: PMA stimulated U937 cells) | binds | no binding (condition: PMA stimulated U937 cells) | binds |
| Sp3 (from UniProt Q02447 1-781) | binds |  |  |  |  |
| Sp4 (from UniProt Q02446 1-784) | no binding |  |  |  |  |
